The record followed here is patent US20180362443A1.

By UniProt entry, the sequences of proteins in these tests, tags left out. Where a name states a change or a piece, a line headed by the entry shows the natural chain unless it says otherwise.
UniProt P21860: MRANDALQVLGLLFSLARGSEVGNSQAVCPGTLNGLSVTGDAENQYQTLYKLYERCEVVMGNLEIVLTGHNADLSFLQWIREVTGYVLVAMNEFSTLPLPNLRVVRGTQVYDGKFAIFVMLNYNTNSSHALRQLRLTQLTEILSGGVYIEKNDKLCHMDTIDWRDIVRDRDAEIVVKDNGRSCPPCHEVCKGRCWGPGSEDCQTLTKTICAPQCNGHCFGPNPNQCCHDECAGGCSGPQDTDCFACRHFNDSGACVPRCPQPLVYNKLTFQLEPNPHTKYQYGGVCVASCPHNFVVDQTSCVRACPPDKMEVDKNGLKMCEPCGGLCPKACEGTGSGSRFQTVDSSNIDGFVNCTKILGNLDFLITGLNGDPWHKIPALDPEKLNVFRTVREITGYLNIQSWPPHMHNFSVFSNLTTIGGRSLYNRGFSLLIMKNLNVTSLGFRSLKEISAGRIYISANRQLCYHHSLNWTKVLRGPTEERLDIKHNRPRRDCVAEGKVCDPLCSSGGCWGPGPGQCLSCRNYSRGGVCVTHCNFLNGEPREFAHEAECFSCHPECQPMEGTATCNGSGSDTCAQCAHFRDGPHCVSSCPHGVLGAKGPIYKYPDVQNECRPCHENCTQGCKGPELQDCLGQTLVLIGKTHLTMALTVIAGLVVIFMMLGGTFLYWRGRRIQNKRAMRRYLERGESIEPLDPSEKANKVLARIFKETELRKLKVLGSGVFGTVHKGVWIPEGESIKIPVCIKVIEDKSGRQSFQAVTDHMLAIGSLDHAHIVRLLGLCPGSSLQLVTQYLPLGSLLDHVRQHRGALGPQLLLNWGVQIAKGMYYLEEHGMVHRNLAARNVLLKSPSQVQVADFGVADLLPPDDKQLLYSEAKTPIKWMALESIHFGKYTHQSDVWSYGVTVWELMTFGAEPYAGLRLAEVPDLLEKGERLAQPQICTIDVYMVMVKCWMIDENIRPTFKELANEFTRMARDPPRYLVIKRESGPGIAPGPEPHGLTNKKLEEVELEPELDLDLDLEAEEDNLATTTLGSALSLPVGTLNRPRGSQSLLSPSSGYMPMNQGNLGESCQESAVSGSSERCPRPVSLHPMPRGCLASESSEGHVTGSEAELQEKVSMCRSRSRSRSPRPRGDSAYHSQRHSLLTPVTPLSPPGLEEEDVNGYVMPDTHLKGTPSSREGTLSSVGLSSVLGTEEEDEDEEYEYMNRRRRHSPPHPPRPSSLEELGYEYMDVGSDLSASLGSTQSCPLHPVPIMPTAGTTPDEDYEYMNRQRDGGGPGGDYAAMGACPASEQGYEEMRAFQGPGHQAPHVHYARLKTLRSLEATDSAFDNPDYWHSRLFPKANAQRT

The test concerns the target ErbB3 (HER3) expressed on B-Raf mutated tumor cell lines HT29, A375, A2058 and WM115 (human) (UniProt P21860). The test is described as follows: flow cytometry on HT29, A375, A2058 and WM115 cells; specific binding = MFI of labeled probe alone over labeled probe with excess unlabeled probe. (In general: Flow cytometry measures light scatter and fluorescence of single cells or particles in a stream.)

These are yes or no findings as the source states them, for the method shown. Some results given as binding are weak or reduced against the parent protein; the word gives no strength.

B1: 2C2-YTE anti-HER3 antibody (antibody, V domains shown)
VH: EVQLLESGGGLVQPGGSLRLSCAASGFTFSYYYMQWVRQAPGKGLEWVSYIGSSGGVTNYADSVKGRFTISRDNSKNTLYLQMNSLRAEDTAVYYCARVGLGDAFDIWGQGTMVTVSS
VL: QSVLTQPPSASGTPGQRVTISCSGSLSNIGLNYVSWYQQLPGTAPKLLISRNNQRPSGVPDRFSGSKSGTSASLAISGLRSEDEADYYCAAWDDSPPGEAFGGGTKLTVL
For the molecule B1, the binding result is on record as “binds”.
